No constants are given. Whether binding was seen depends on the method and setting. In cells and extracts the contact can be indirect. Some results given as binding are weak or reduced against the parent protein; the word gives no strength. Tags and fused reporters may be left off the sequences shown.
Biological target: T1, EGFP-HS1BP3 WT (UniProt Q53T59)
T1 sequence: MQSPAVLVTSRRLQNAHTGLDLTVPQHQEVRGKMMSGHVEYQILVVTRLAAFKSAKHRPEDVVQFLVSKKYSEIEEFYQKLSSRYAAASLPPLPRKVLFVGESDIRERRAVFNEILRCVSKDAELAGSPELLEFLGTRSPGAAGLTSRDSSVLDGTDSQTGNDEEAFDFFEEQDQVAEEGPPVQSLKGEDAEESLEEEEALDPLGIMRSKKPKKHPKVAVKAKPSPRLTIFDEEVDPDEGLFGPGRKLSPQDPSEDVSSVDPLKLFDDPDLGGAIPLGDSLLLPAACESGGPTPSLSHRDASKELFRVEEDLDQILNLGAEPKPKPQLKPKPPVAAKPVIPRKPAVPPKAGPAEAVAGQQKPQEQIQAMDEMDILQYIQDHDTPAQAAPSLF
Assay: co-IP

Protein sequences, listed by entry. Tags and fused reporters are not part of them.
UniProt Q14247: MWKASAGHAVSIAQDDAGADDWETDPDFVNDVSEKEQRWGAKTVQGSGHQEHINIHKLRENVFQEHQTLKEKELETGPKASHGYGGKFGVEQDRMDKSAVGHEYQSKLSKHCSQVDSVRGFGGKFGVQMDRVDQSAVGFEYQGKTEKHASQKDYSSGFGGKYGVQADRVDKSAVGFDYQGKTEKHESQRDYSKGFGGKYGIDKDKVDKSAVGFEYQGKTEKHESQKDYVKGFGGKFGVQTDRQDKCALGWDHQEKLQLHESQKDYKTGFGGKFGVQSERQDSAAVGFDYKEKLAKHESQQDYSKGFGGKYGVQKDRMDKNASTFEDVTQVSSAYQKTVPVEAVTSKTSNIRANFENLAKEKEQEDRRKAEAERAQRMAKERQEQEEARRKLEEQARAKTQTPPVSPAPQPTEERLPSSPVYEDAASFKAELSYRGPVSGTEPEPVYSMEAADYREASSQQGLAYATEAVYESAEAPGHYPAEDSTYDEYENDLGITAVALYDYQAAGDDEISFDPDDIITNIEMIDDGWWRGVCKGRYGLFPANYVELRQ

Question: For “Src substrate cortactin, endogenous in MKN-74 cells (from UniProt Q14247 1-550)”, which binding is on record?
Answer: binds

Source: publication doi:10.1101/2025.07.14.664640
